Measured values reported in the supplement of paper PMC11542785.
Where a name gives a salt, the structure may show the parent alone. This is one part of the list. Single values are uncertain, as repeats are few or missing.

Tested on: Drosophila melanogaster DPAGT1 (Alg7) RNAi eye model
Assay: eye size Z-score vs DMSO-treated DPAGT1 model flies; higher = larger eye (suppression of DPAGT1 phenotype)
Conditions: 5 uM

SMILES	eye size Z-score	eye size Z-score (female)
CCOc1ccc(NC(C)=O)cc1 [Phenacetin]	0.32	–
CN1CCC[C@@H]1CCO[C@](C)(c1ccccc1)c1ccc(Cl)cc1 [Clemastine fumarate]	0.29	–
CC(C(=O)O)c1ccc(C(=O)c2cccs2)cc1 (stereo unspecified) [Suprofen]	0.12	–
COc1cc2ncnc(Nc3ccc(F)c(Cl)c3)c2cc1OCCCN1CCOCC1 [Gefitinib]	-0.58	–
COc1ccc(C(=O)c2ccccc2O)c(O)c1 [Dioxybenzone]	-1.21	–
CC(C)(C)NC[C@H](O)COc1ccccc1C1CCCC1 [Penbutolol sulfate]	-0.45	–
Nc1nc2[nH]cc(CCc3ccc(C(=O)N[C@@H](CCC(=O)O)C(=O)O)cc3)c2c(=O)[nH]1 [Pemetrexed disodium]	-0.01	–
CCN1CCN(Cc2ccc(Nc3ncc(F)c(-c4cc(F)c5nc(C)n(C(C)C)c5c4)n3)nc2)CC1 [Abemaciclib]	-0.25	–
COCCc1ccc(OCC(O)CNC(C)C)cc1 (stereo not drawn) [Metoprolol-(+)-tartrate salt]	0.3	–
COc1ccc(CN2CCN(C(c3ccc(F)cc3)c3ccc(F)cc3)CC2)c(OC)c1OC [Lomerizine dihydrochloride]	0.09	–
Cc1cnc(C(=O)O)c[n+]1[O-] [Acipimox]	0	–
CC(=O)Nc1cccc(O)c1 [Metacetamol]	-0.21	–
O=C(O)[C@H]1/C(=C/CO)O[C@@H]2CC(=O)N21 [Clavulanate potassium salt]	-0.63	–
O=C(OCCOCCO)c1ccccc1Nc1cccc(C(F)(F)F)c1 [Etofenamate]	0.19	–
OCCN1C[C@H](O)[C@@H](O)[C@H](O)[C@H]1CO [Miglitol]	1.45	–
Cn1cnc([N+](=O)[O-])c1Sc1ncnc2[nH]cnc12 [Azathioprine]	-0.17	–
CC(=O)Oc1cc2c(s1)CCN(C(C(=O)C1CC1)c1ccccc1F)C2 (stereo unspecified) [Prasugrel]	0.99	–
CC(C)C(=O)Nc1ccc([N+](=O)[O-])c(C(F)(F)F)c1 [Flutamide]	0.33	–
O=C(O)CCCC[C@@H]1SC[C@@H]2NC(=O)N[C@@H]21 [Biotin]	-0.62	–
COCC(=O)Nc1c(I)c(C(=O)NCC(O)CO)c(I)c(C(=O)N(C)CC(O)CO)c1I (stereo unspecified) [Iopromide]	0.48	–
CCOC(=O)Nc1ccc(NCc2ccc(F)cc2)nc1N [Flupirtine]	0.83	–
CC(C)=CCC1C(=O)N(c2ccccc2)N(c2ccccc2)C1=O [Feprazone]	1.02	–
N[C@@H](CSCCCO)C(=O)O [Fudosteine]	0.64	–
C[C@H](CCC(=O)O)[C@H]1CC[C@H]2[C@@H]3CC[C@@H]4C[C@H](O)CC[C@]4(C)[C@H]3CC[C@]12C [Lithocholic acid]	-0.2	–
CC(=O)SCC(Cc1ccccc1)C(=O)NCC(=O)OCc1ccccc1 (stereo unspecified) [Racecadotril]	-0.52	–
COC(=O)C1=C(C)NC(C)=C(C(=O)OC(C)C)C1c1cccc2nonc12 (stereo unspecified) [Isradipine]	-1.05	–

Not a retest: entries from further up.
SMILES	eye size Z-score	eye size Z-score (female)
CCOc1ccc(NC(C)=O)cc1 [Phenacetin]	0.32	–
CN1CCC[C@@H]1CCO[C@](C)(c1ccccc1)c1ccc(Cl)cc1 [Clemastine fumarate]	0.29	–
CC(C(=O)O)c1ccc(C(=O)c2cccs2)cc1 (stereo unspecified) [Suprofen]	0.12	–
COc1cc2ncnc(Nc3ccc(F)c(Cl)c3)c2cc1OCCCN1CCOCC1 [Gefitinib]	-0.58	–

The results go on.

SMILES	eye size Z-score	eye size Z-score (female)
CN1CCC(OC(c2ccccc2)c2ccccc2)CC1 [Diphenylpyraline hydrochloride]	-0.27	–
O=C(Oc1cccc2cccnc12)c1ccccc1 [Benzoxiquine]	0.59	–
Clc1ccc(Nc2nnc(Cc3ccncc3)c3ccccc23)cc1 [Vatalanib]	0.29	–
O=c1[nH]cnc2c1ncn2[C@H]1CC[C@@H](CO)O1 [Didanosine]	0.4	–
CN(C/C=C/C#CC(C)(C)C)Cc1cccc2ccccc12 [Terbinafine]	0.26	–
Nc1nc(O)c2ncn(CCC(CO)CO)c2n1 [Penciclovir]	-0.01	–
Fc1ccc([C@@H]2CCNC[C@H]2COc2ccc3c(c2)OCO3)cc1 [Paroxetine hydrochloride]	-0.32	–
C[C@H]1COc2c(N3CCN(C)CC3)c(F)cc3c(=O)c(C(=O)O)cn1c23 [Levofloxacin]	0.53	–
CN(C)CCCN1c2ccccc2CCc2ccccc21 [Imipramine hydrochloride]	-0.19	–
NC(CO)C(=O)NNCc1ccc(O)c(O)c1O (stereo unspecified) [Benserazide hydrochloride]	0.85	–
CCCC(=O)OCOC(=O)C1=C(C)NC(C)=C(C(=O)OC)C1c1cccc(Cl)c1Cl (stereo unspecified) [Clevidipine]	-0.4	–
O=C1c2cccc3c2[C@H](CCC3)CN1[C@@H]1CN2CCC1CC2 [Palonosetron hydrochloride]	-0.07	–
NCC[C@H](O)C(=O)N[C@@H]1C[C@H](N)[C@@H](O[C@H]2O[C@H](CN)[C@@H](O)[C@H](O)[C@H]2O)[C@H](O)[C@H]1O[C@H]1O[C@H](CO)[C@@H](O)[C@H](N)[C@H]1O [Amikacin hydrate]	0.41	–
O=C1Nc2ccccc2C1(c1ccc(O)cc1)c1ccc(O)cc1 [Oxyphenisatin]	0.2	–
CC(C)CN(C[C@@H](O)[C@H](Cc1ccccc1)NC(=O)O[C@H]1CO[C@H]2OCC[C@H]21)S(=O)(=O)c1ccc(N)cc1 [Darunavir]	–	0.04
O=C(O)CSCC(=O)NC1CCSC1=O (stereo unspecified) [Erdosteine]	-0.37	–
CCN(CC)CCNC(=O)COc1ccc(OC)cc1 [Mefexamide hydrochloride]	0.06	–
Cc1nc2n(c(=O)c1CCN1CCC(c3noc4cc(F)ccc34)CC1)CCCC2O (stereo unspecified) [Paliperidone]	1.86	–
CCOc1ccc(NC(=O)CC(C)O)cc1 (stereo unspecified) [Bucetin]	0.21	–
Clc1ccc(C(Cn2ccnc2)OCc2csc3c(Cl)cccc23)c(Cl)c1 (stereo unspecified) [Sertaconazole nitrate]	-0.4	–
CC(=O)OCC1=C(C(=O)O)N2C(=O)[C@@H](NC(=O)Cc3cccs3)[C@H]2SC1 [Cephalothin sodium salt]	0.19	–
CC1(C)S[C@@H]2[C@H](NC(=O)Cc3ccccc3)C(=O)N2[C@H]1C(=O)O [Benzathine benzylpenicillin]	-0.01	–
CC1(C)S[C@@H]2[C@H](NC(=O)Cc3ccccc3)C(=O)N2[C@H]1C(=O)O [Benzylpenicillin sodium]	0.04	–
CCCCc1nc(Cl)c(CO)n1Cc1ccc(-c2ccccc2-c2nnn[nH]2)cc1 [Losartan]	-0.24	–
O=C1CCC(N2C(=O)c3ccccc3C2=O)C(=O)N1 (stereo unspecified) [Thalidomide]	0.34	–
